Test results taken from the supplement of paper PMC10849652.
The list shows a part of the results.

Amino acid sequences for entries named in this document (tags omitted). A change or cut given only in a name is not applied to a line headed by its entry.
UniProt Q9UBW7: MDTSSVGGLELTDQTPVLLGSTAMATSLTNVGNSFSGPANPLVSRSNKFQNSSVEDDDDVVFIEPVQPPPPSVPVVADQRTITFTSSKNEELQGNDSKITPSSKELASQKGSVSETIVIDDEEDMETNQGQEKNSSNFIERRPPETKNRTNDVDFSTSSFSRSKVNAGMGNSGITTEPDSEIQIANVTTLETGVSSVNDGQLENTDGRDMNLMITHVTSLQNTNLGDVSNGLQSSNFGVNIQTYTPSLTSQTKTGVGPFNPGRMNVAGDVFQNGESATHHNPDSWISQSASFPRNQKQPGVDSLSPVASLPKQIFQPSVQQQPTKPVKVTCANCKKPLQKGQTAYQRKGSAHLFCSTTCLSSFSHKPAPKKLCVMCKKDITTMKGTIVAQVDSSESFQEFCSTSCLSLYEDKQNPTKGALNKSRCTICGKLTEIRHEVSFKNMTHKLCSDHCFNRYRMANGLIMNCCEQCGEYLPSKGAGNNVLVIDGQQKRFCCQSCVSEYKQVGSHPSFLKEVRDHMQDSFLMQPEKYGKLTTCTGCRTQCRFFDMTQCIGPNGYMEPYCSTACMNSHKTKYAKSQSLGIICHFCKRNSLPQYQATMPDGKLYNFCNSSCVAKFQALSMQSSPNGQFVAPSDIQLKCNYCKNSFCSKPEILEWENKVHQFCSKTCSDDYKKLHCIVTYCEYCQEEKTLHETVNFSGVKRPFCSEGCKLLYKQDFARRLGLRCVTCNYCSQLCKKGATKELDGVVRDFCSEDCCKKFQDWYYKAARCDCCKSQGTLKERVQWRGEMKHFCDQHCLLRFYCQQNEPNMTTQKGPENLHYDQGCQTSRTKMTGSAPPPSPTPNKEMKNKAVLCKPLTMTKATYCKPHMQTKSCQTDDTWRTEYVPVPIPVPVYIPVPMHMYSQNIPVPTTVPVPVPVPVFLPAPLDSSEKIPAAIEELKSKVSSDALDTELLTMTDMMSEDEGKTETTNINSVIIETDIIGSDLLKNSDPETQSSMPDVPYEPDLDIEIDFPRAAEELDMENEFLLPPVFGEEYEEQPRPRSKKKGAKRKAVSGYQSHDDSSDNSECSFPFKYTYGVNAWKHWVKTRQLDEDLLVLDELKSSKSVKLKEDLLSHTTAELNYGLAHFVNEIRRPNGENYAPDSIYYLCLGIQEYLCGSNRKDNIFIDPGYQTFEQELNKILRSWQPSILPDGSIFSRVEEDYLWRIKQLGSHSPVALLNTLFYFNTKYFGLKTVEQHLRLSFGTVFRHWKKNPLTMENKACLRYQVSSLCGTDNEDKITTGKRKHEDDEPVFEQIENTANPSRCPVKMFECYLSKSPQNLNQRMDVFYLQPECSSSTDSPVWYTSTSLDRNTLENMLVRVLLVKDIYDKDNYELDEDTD
UniProt Q9Y5V0: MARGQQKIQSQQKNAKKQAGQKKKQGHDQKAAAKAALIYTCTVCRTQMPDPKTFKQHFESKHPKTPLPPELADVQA
UniProt Q969S3: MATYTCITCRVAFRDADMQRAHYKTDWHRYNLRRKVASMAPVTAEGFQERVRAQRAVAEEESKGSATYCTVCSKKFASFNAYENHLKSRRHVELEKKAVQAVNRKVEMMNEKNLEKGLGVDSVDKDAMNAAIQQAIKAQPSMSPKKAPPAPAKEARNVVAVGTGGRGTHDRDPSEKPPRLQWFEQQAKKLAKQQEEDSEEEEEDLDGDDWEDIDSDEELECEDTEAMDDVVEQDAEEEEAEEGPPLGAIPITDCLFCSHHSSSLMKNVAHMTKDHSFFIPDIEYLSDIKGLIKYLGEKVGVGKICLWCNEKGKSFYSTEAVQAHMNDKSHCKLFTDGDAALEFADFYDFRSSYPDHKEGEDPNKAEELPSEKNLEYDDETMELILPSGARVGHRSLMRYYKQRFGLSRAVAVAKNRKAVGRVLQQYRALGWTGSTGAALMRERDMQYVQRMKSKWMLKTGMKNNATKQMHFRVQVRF
UniProt Q8NAF0: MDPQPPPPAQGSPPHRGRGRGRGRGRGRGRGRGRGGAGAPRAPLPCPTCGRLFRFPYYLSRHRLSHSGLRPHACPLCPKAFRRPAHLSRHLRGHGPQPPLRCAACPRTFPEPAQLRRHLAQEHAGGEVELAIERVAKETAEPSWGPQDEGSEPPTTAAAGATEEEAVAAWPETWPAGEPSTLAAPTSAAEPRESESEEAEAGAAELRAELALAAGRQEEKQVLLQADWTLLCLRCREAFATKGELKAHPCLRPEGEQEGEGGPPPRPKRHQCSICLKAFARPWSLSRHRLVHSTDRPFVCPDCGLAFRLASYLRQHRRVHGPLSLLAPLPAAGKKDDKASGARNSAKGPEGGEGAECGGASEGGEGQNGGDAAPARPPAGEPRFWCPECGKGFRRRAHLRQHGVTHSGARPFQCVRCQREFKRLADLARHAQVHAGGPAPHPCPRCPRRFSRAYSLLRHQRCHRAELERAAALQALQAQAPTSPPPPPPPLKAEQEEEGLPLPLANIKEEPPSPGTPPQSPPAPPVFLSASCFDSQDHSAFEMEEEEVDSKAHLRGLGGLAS
UniProt Q9UQR1: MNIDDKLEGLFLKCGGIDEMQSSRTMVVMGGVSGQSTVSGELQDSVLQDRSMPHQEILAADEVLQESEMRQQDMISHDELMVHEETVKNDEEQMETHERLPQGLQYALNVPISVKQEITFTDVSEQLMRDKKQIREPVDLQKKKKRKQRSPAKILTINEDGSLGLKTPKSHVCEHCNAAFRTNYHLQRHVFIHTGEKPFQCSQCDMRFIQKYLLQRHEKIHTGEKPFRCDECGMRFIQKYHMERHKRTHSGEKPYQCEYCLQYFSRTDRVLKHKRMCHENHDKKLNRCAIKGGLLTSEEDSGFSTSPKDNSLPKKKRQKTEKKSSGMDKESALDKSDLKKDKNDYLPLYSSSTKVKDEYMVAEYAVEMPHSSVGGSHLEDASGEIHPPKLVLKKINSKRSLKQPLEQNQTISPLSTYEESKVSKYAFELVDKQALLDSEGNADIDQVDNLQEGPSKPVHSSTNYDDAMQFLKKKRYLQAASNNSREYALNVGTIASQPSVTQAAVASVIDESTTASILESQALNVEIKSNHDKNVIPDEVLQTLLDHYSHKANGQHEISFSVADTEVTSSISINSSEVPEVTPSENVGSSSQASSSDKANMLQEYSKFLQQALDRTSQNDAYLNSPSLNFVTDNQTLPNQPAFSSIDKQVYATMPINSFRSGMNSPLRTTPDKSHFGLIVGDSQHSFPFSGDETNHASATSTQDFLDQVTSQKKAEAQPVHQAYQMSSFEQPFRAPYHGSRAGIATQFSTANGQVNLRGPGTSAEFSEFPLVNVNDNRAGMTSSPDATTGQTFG
UniProt P17029: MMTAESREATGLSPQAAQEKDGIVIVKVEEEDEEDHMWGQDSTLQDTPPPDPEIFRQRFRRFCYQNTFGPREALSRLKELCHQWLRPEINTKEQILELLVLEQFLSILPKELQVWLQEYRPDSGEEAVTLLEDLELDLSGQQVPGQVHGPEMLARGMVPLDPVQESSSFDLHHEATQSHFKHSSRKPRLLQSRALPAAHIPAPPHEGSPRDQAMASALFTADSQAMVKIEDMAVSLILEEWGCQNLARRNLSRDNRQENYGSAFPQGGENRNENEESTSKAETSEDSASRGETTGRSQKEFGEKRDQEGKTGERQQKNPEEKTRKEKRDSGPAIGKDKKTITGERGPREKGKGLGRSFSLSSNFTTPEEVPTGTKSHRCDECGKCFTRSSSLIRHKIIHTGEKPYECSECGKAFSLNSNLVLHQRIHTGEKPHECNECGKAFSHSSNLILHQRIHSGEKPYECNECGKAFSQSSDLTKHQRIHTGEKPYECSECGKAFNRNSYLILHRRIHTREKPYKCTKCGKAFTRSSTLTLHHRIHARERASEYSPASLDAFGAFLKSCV
UniProt Q9BRR0: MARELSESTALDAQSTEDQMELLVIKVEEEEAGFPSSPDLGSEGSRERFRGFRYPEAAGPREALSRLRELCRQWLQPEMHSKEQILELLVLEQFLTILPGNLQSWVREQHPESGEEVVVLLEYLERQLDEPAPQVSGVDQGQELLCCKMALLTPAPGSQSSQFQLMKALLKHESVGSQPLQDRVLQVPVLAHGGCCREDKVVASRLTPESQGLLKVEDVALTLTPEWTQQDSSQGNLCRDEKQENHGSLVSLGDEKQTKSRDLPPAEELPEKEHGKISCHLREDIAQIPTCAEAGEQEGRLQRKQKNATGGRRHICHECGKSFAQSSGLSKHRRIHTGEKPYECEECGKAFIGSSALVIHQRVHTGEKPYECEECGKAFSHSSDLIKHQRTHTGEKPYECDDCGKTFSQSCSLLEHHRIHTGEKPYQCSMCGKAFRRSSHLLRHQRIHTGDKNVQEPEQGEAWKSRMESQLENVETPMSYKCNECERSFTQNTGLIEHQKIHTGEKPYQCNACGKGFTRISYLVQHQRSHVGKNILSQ
UniProt Q5BKZ1: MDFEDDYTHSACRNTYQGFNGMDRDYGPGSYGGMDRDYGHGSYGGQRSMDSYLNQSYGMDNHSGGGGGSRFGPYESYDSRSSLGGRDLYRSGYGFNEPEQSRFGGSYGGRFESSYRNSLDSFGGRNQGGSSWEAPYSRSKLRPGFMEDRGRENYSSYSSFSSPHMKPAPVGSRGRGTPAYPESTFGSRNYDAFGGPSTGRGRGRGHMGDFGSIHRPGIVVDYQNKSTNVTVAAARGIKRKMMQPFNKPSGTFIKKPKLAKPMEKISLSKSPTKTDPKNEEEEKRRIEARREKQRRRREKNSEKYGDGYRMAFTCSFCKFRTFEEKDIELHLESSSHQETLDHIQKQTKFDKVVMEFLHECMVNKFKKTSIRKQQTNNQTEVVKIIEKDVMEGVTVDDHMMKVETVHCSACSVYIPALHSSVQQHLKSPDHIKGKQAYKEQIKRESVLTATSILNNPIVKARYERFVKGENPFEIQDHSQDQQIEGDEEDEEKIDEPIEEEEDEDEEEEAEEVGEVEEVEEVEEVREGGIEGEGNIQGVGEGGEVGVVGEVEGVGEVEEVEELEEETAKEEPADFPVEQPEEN
UniProt O00488: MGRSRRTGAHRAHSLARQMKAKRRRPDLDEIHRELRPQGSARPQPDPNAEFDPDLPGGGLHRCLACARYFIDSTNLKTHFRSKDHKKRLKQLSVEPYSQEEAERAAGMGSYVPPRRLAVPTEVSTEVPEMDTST
UniProt P17026: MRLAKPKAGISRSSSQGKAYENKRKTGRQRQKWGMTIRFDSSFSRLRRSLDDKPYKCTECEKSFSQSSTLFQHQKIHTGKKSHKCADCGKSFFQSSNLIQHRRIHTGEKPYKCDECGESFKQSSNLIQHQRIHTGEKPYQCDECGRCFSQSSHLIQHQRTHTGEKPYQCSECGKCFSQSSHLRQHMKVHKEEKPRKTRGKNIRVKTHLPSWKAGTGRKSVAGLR
UniProt Q86YH2: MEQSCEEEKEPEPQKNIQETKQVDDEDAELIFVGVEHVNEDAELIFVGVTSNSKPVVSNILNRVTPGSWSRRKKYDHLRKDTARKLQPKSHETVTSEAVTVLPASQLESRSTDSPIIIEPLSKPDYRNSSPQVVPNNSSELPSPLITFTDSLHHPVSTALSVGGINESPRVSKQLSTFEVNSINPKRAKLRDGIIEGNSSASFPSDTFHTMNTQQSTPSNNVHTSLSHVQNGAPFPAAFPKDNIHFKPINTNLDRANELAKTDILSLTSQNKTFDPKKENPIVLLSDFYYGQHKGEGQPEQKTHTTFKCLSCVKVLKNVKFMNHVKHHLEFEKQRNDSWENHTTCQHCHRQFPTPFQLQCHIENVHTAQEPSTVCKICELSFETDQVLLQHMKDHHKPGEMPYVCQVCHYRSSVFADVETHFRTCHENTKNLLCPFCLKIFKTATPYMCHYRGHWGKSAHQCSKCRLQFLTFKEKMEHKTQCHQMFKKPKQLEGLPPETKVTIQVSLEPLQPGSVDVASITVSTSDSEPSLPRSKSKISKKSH
UniProt Q16600: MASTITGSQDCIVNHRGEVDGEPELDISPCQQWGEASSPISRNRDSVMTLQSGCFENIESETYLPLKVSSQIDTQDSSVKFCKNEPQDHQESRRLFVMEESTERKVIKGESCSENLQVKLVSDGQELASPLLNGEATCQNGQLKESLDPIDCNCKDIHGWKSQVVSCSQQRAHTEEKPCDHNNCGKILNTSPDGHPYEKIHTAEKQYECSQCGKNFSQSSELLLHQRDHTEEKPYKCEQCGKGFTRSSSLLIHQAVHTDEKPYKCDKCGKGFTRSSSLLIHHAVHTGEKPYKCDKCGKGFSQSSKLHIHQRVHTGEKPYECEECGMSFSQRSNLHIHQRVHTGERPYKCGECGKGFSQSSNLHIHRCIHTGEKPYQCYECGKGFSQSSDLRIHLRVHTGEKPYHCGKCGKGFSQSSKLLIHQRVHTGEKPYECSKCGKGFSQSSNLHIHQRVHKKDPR

What was measured:
Assay in all cases: log2 fold change, soluble protein after heating vs DMSO (PISA); higher = thermal stabilisation; K562 lysate, 10 uM; active = over 0.2 and 3.5 SD of the protein, either way, in both replicates (recomputed)
[1] = compound: C#Cc1cccc(Nc2ncnc3cc(OCCOC)c(OCCOC)cc23)c1 [erlotinib]
In short: (§1)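 Values give the log-two fold change in thermal stability against solvent controls, from duplicates. Crude K562 extract at 1 mg/mL protein, made by dounce homogenisation in PBS pH 7.4 with 1 mM MgCl2, was treated with 10 μM compound for 30 min. After 3 min heating across 48°C-58°C, aliquots were pooled, adjusted to 0.5% NP-40 at 4°C and centrifuged at 21,000xg for 90 min. The supernatant was measured by TMTpro 16plex LC-MS/MS with channel sums equalised.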

[2] = compound: C/C(=N\NC(=O)C1=CC(=CC=C1)S(=O)(=O)N2CCOCC2)/C3=C(C=CC(=C3)Cl)O
In short: as §1

[3] = compound: C1=CC(=CC=C1C2=NC3=C(N2)C=C(C=C3)C(=O)N)OC4=CC=C(C=C4)Cl
In short: as §1

[4] = compound: C1=CC2=C(C=CC(=C2)/C=C\3/C(=O)NC(=NCC4=CC=CS4)S3)N=C1
In short: as §1

[5] = compound: C1=CC2=NC=CN=C2C=C1/C=C/3\C(=O)NC(=O)S3
In short: as §1

[6] = compound: C1=CC=C(C=C1)C2=NC(=C(N2)C3=CC=NC=C3)C4=CC(=C(C=C4)Cl)O
In short: as §1

[7] = compound: C1=CC=C2C(=C1)C3=NNC4=CC=CC(=C43)C2=O
In short: as §1

[8] = compound: C1CCN(C1)C(=O)NC2=CC=CC(=C2)NC3=NC=C(C(=N3)NCCC4=CN=CN4)Br
In short: as §1

[9] = compound: C1CN(CCC1(CC2=CC=C(C=C2)Cl)N)C3=NC=NC4=C3C=CN4
In short: as §1

[10] = compound: C1COCCN1CCN2C3=CC=CC=C3N=C2NC(=O)C4=CC(=CC=C4)[N+](=O)[O-] [IRAK-1-4 Inhibitor I]
In short: as §1

[11] = compound: C=CC(=O)N1CCC[C@@H](n2nc(-c3ccc(Oc4ccccc4)cc3)c3c(N)ncnc32)C1 [ibrutinib]
In short: as §1

[12] = compound: CC(=O)c1cnc2ccc(-c3cc(Cl)c(O)c(Cl)c3)nc2c1N[C@H]1CC[C@H](CN(C)C)CC1
In short: as §1

[13] = compound: CC(C)(C)Cn1c(N)nc2ccc(-c3[nH]c(C(C)(C)C)nc3-c3ccc(F)cc3)nc21 [ralimetinib]
In short: as §1

[14] = compound: CC(C)(O)CC(=O)NCCn1ccc2ncnc(Nc3ccc(Oc4cccc(C(F)(F)F)c4)c(Cl)c3)c21
In short: as §1

[15] = compound: CC(C)C1=C2N=C(C=C(N2N=C1)NCC3=CC=CC=C3)NCCCCCCN
In short: as §1

[16] = compound: CC1=C(C(CC(=O)N1)C2=CC=C(C=C2)C(F)(F)F)C(=O)NC3=C(C=C4C(=C3)C=NN4)F
In short: as §1

[17] = compound: CC1=C(C2=C(C=C1)C(=O)C3=CC=CC=C3N2CCCN)C
In short: as §1

[18] = compound: CC1=C(C=C(C=C1)NC(=O)C2=CC(=CC=C2)C(C)(C)C#N)NC3=CC4=C(C=C3)N=CN(C4=O)C
In short: as §1

[19] = compound: CC1=C(C=C(C=C1)NC(=O)C2=CC(=CC=C2)N(C)C)NC(=O)C3=CC=C(C=C3)O
In short: as §1

[20] = compound: CC1=CC=C(C=C1)SC2=C3C=C(SC3=CN=C2)C(=O)N
In short: as §1

| Target | log2 fold change [1] | log2 fold change [2] | log2 fold change [3] | log2 fold change [4] | log2 fold change [5] | log2 fold change [6] | log2 fold change [7] | log2 fold change [8] | log2 fold change [9] | log2 fold change [10] | log2 fold change [11] | log2 fold change [12] | log2 fold change [13] | log2 fold change [14] | log2 fold change [15] | log2 fold change [16] | log2 fold change [17] | log2 fold change [18] | log2 fold change [19] | log2 fold change [20] |
| --- | --- | --- | --- | --- | --- | --- | --- | --- | --- | --- | --- | --- | --- | --- | --- | --- | --- | --- | --- | --- |
| ZMYM2 (UniProt Q9UBW7) | inactive: 0.036 | inactive: -0.049 | inactive: 0.038 | inactive: 0.073 | inactive: -0.022 | inactive: 0.053 | inactive: -0.05 | inactive: -0.209 | inactive: 0.116 | inactive: 0.07 | inactive: -0.029 | inactive: -0.059 | inactive: -0.037 | inactive: -0.106 | inactive: -0.039 | inactive: -0.008 | inactive: -0.018 | inactive: 0.004 | inactive: 0.04 | inactive: -0.068 |
| ZNF706 (UniProt Q9Y5V0) | inactive: 0 | inactive: -0.042 | inactive: 0.026 | inactive: 0.003 | inactive: -0.045 | inactive: -0.041 | inactive: -0.013 | inactive: 0.006 | inactive: -0.043 | inactive: 0.004 | inactive: 0.102 | inactive: -0.002 | inactive: 0.032 | inactive: -0.065 | inactive: 0.01 | inactive: 0.015 | inactive: -0.051 | inactive: 0.03 | inactive: -0.038 | inactive: -0.022 |
| ZNF622 (UniProt Q969S3) | inactive: -0.007 | inactive: 0.025 | inactive: -0.022 | inactive: -0.015 | inactive: -0.013 | inactive: 0.003 | inactive: -0.005 | inactive: -0.007 | inactive: -0.024 | inactive: -0.006 | inactive: 0.023 | inactive: 0.007 | inactive: 0 | inactive: -0.006 | inactive: -0.038 | inactive: -0.052 | inactive: -0.003 | inactive: 0.003 | inactive: -0.008 | inactive: 0.008 |
| ZNF579 (UniProt Q8NAF0) | inactive: -0.031 | inactive: 0.288 | inactive: -0.017 | inactive: -0.189 | inactive: -0.081 | inactive: -0.004 | inactive: 0.106 | inactive: -0.021 | inactive: -0.029 | inactive: 0.017 | inactive: 0.084 | inactive: -0.015 | inactive: 0.045 | inactive: -0.057 | inactive: -0.01 | inactive: 0.002 | inactive: -0.06 | inactive: 0.01 | inactive: -0.049 | inactive: -0.007 |
| ZNF768 (UniProt Q9H5H4) | inactive: -0.12 | inactive: -0.062 | inactive: -0.013 | inactive: -0.006 | inactive: -0.009 | inactive: 0.062 | inactive: -0.039 | inactive: -0.047 | inactive: 0.032 | inactive: -0.027 | inactive: 0.009 | inactive: -0.013 | inactive: -0.033 | inactive: 0.033 | inactive: 0.005 | inactive: -0.024 | inactive: 0.063 | inactive: 0.109 | inactive: 0.024 | inactive: 0.027 |
| ZNF644 (UniProt Q9H582) | inactive: 0.192 | inactive: -0.085 | inactive: 0.071 | inactive: 0.075 | inactive: 0.066 | inactive: -0.115 | inactive: -0.04 | inactive: 0.036 | inactive: -0.037 | inactive: 0.035 | inactive: 0.07 | – | inactive: -0.023 | inactive: 0.052 | inactive: 0.038 | inactive: -0.061 | inactive: 0.042 | inactive: -0.005 | inactive: -0.02 | – |
| ZNF148 (UniProt Q9UQR1) | inactive: 0.022 | inactive: -0.041 | inactive: -0.074 | inactive: -0.031 | inactive: -0.068 | inactive: -0.058 | inactive: 0.13 | inactive: -0.022 | inactive: 0.035 | inactive: -0.007 | inactive: 0.127 | – | inactive: 0.074 | inactive: -0.111 | inactive: -0.079 | inactive: 0.037 | inactive: 0.094 | inactive: 0.148 | inactive: 0.035 | – |
| ZNF525 (UniProt J3KR51) | inactive: 0.131 | inactive: 0.082 | inactive: 0.139 | inactive: -0.066 | inactive: -0.105 | – | inactive: -0.09 | – | – | – | inactive: -0.069 | – | – | – | inactive: -0.047 | – | – | – | – | – |
| ZKSCAN1 (UniProt P17029) | inactive: -0.036 | inactive: -0.113 | inactive: -0.029 | inactive: 0.028 | inactive: -0.048 | inactive: 0.097 | inactive: -0.014 | inactive: 0.07 | inactive: -0.044 | inactive: 0.052 | inactive: 0.043 | inactive: -0.045 | inactive: -0.046 | inactive: 0.012 | inactive: 0.018 | inactive: 0.082 | inactive: 0.012 | inactive: 0.036 | inactive: 0.048 | inactive: -0.007 |
| ZNF407 (UniProt Q9C0G0) | inactive: 0.127 | inactive: 0.121 | inactive: 0.048 | inactive: -0.031 | inactive: -0.079 | inactive: -0.143 | inactive: -0.055 | inactive: 0.01 | inactive: -0.02 | inactive: -0.048 | inactive: 0.052 | inactive: -0.072 | inactive: 0.089 | inactive: 0.055 | inactive: 0.036 | – | inactive: -0.206 | – | inactive: -0.213 | inactive: -0.064 |
| ZKSCAN3 (UniProt Q9BRR0) | inactive: 0.026 | inactive: -0.091 | inactive: 0.14 | inactive: -0.198 | inactive: 0.033 | inactive: -0.034 | inactive: 0.07 | inactive: -0.044 | inactive: -0.019 | inactive: -0.335 | inactive: 0.023 | inactive: -0.365 | inactive: -0.079 | inactive: -0.041 | inactive: 0 | – | inactive: 0.028 | inactive: 0.08 | inactive: 0.039 | inactive: -0.225 |
| ZNF326 (UniProt Q5BKZ1) | inactive: -0.087 | inactive: -0.016 | inactive: 0.124 | inactive: 0.113 | – | inactive: 0.031 | inactive: -0.099 | inactive: 0.009 | inactive: 0.038 | inactive: 0.01 | – | – | inactive: -0.033 | inactive: 0.008 | inactive: 0.053 | inactive: -0.065 | inactive: 0.014 | inactive: 0.015 | inactive: 0.005 | – |
| ZNF593 (UniProt O00488) | inactive: -0.084 | inactive: -0.149 | inactive: 0.116 | inactive: 0.003 | inactive: 0.005 | inactive: -0.098 | inactive: 0.059 | inactive: 0 | inactive: 0.084 | inactive: 0.003 | inactive: 0.018 | inactive: 0.17 | inactive: 0.096 | inactive: 0.013 | inactive: -0.081 | – | inactive: -0.017 | inactive: -0.028 | inactive: -0.034 | inactive: -0.051 |
| ZPR1 (UniProt O75312) | inactive: -0.031 | inactive: 0 | inactive: -0.007 | inactive: -0.004 | inactive: -0.01 | inactive: 0.02 | inactive: 0.006 | inactive: 0.018 | inactive: 0.014 | inactive: 0.008 | inactive: 0.001 | inactive: -0.005 | inactive: -0.019 | inactive: -0.016 | inactive: -0.017 | inactive: -0.021 | inactive: 0.021 | inactive: -0.008 | inactive: 0.011 | inactive: -0.004 |
| ZSWIM8 isoform 4 (UniProt A7E2V4) | inactive: 0.025 | active: 0.508 | inactive: -0.053 | inactive: 0.02 | inactive: -0.044 | inactive: -0.021 | inactive: -0.163 | inactive: -0.239 | inactive: 0.109 | inactive: -0.122 | inactive: -0.08 | – | inactive: 0.101 | inactive: -0.048 | inactive: 0.002 | inactive: -0.017 | inactive: 0.28 | inactive: -0.131 | inactive: 0.105 | – |
| ZNF22 (UniProt P17026) | inactive: 0.156 | inactive: -0.409 | inactive: -0.022 | inactive: -0.084 | inactive: -0.153 | inactive: 0.013 | inactive: 0.238 | inactive: 0.098 | inactive: -0.082 | inactive: 0.059 | inactive: -0.021 | inactive: 0.108 | inactive: 0.015 | inactive: -0.046 | inactive: 0.063 | inactive: -0.041 | inactive: -0.002 | inactive: -0.037 | inactive: 0.025 | inactive: 0.033 |
| ZNF280B (UniProt Q86YH2) | inactive: 0.124 | inactive: -0.033 | inactive: 0.122 | inactive: 0.001 | inactive: 0.083 | – | inactive: 0.008 | – | – | – | inactive: 0.027 | – | – | – | inactive: 0.011 | inactive: -0.083 | – | inactive: 0.085 | – | – |
| ZNF239 (UniProt Q16600) | inactive: 0.051 | inactive: -0.157 | inactive: 0.007 | inactive: -0.16 | inactive: -0.054 | inactive: -0.071 | inactive: 0.032 | inactive: 0.098 | inactive: 0.163 | inactive: 0.051 | inactive: 0.04 | – | inactive: -0.025 | inactive: -0.044 | inactive: -0.022 | inactive: -0.017 | – | inactive: -0.014 | inactive: -0.017 | – |

Reprinted at random: two records from the list

| Target | log2 fold change [1] | log2 fold change [2] | log2 fold change [3] | log2 fold change [4] | log2 fold change [5] | log2 fold change [6] | log2 fold change [7] | log2 fold change [8] | log2 fold change [9] | log2 fold change [10] | log2 fold change [11] | log2 fold change [12] | log2 fold change [13] | log2 fold change [14] | log2 fold change [15] | log2 fold change [16] | log2 fold change [17] | log2 fold change [18] | log2 fold change [19] | log2 fold change [20] |
| --- | --- | --- | --- | --- | --- | --- | --- | --- | --- | --- | --- | --- | --- | --- | --- | --- | --- | --- | --- | --- |
| ZNF622 (UniProt Q969S3) | inactive: -0.007 | inactive: 0.025 | inactive: -0.022 | inactive: -0.015 | inactive: -0.013 | inactive: 0.003 | inactive: -0.005 | inactive: -0.007 | inactive: -0.024 | inactive: -0.006 | inactive: 0.023 | inactive: 0.007 | inactive: 0 | inactive: -0.006 | inactive: -0.038 | inactive: -0.052 | inactive: -0.003 | inactive: 0.003 | inactive: -0.008 | inactive: 0.008 |
| ZNF326 (UniProt Q5BKZ1) | inactive: -0.087 | inactive: -0.016 | inactive: 0.124 | inactive: 0.113 | – | inactive: 0.031 | inactive: -0.099 | inactive: 0.009 | inactive: 0.038 | inactive: 0.01 | – | – | inactive: -0.033 | inactive: 0.008 | inactive: 0.053 | inactive: -0.065 | inactive: 0.014 | inactive: 0.015 | inactive: 0.005 | – |
